{"source": "PubChem BioAssay AID1671195 – Yale University – 2021", "screen": "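Regulators of LDL receptor activity judged by labelled LDL uptake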 (primary screen)", "cell system": "human Huh7 hepatoma cells", "knock-down reagent": "siRNA pool against human genes, 18 nM", "timing": "about 2 to 2.5 days of knockdown, then 8 h LDL uptake", "challenge": "DiI-labelled LDL at 30 µg/ml for 8 h, in lipoprotein-deficient serum medium", "measurement": "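Per-cell DiI-LDL intensity by automated imaging; well means scaled to the plate median and given as a robust z-score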", "scale": "robust z-score: higher = more LDL uptake after knockdown", "call rule": "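a gene counts as active if at least two replicate z-scores exceed ±2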", "note": "In all, the deposit lists about 22,000 reagents; this is a part drawn at random. About 1,510 of them (6.9%) were called active. 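Active includes knockdowns raising or lowering LDL uptake; positive z-scores mean more uptake, negative mean less.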"}
{"Gene": "MIS18A", "robust z-score, replicate 1": -1.79, "robust z-score, replicate 2": -1.38, "robust z-score, replicate 3": -1.07, "Outcome": "inactive"}
{"Gene": "IFI27L1", "robust z-score, replicate 1": -0.361, "robust z-score, replicate 2": -0.781, "robust z-score, replicate 3": -0.908, "Outcome": "inactive"}
{"Gene": "KLRK1", "robust z-score, replicate 1": -1.18, "robust z-score, replicate 2": -1.72, "robust z-score, replicate 3": -1.67, "Outcome": "inactive"}
{"Gene": "RPS15A", "robust z-score, replicate 1": 0.391, "robust z-score, replicate 2": 0.038, "robust z-score, replicate 3": 1.15, "Outcome": "inactive"}
{"Gene": "MYORG", "robust z-score, replicate 1": -0.316, "robust z-score, replicate 2": -0.83, "robust z-score, replicate 3": -0.776, "Outcome": "inactive"}
{"Gene": "TBX10", "robust z-score, replicate 1": 0.0846, "robust z-score, replicate 2": 1.63, "robust z-score, replicate 3": 0.336, "Outcome": "inactive"}
{"Gene": "PPP1R12C", "robust z-score, replicate 1": -1.83, "robust z-score, replicate 2": -1.4, "robust z-score, replicate 3": -1.56, "Outcome": "inactive"}
{"Gene": "IFITM3P8", "robust z-score, replicate 1": 1.47, "robust z-score, replicate 2": 1.88, "robust z-score, replicate 3": 1.34, "Outcome": "inactive"}
{"Gene": "CFAP95", "robust z-score, replicate 1": -0.289, "robust z-score, replicate 2": -0.974, "robust z-score, replicate 3": 1.07, "Outcome": "inactive"}
{"Gene": "ANO4", "robust z-score, replicate 1": 0.702, "robust z-score, replicate 2": 0.993, "robust z-score, replicate 3": 2.1, "Outcome": "inactive"}
{"Gene": "QPRT", "robust z-score, replicate 1": -0.456, "robust z-score, replicate 2": -0.306, "robust z-score, replicate 3": -0.719, "Outcome": "inactive"}
{"Gene": "LINC01164", "robust z-score, replicate 1": 1.38, "robust z-score, replicate 2": 0.78, "robust z-score, replicate 3": 0.526, "Outcome": "inactive"}
{"Gene": "SIK3", "robust z-score, replicate 1": 3.1, "robust z-score, replicate 2": 3.46, "robust z-score, replicate 3": 1.17, "Outcome": "active"}
{"Gene": "C8orf15 (retired record)", "robust z-score, replicate 1": 4.03, "robust z-score, replicate 2": 3.19, "robust z-score, replicate 3": 2.58, "Outcome": "active"}
{"Gene": "CCDC68", "robust z-score, replicate 1": -0.421, "robust z-score, replicate 2": -0.684, "robust z-score, replicate 3": -0.802, "Outcome": "inactive"}
{"Gene": "MUC3B", "robust z-score, replicate 1": 0.89, "robust z-score, replicate 2": 0.381, "robust z-score, replicate 3": 1.12, "Outcome": "inactive"}

2 entries from above, reformatted:
Gene	robust z-score, replicate 1	robust z-score, replicate 2	robust z-score, replicate 3	Outcome
RPS15A	0.391	0.038	1.15	inactive
MYORG	-0.316	-0.83	-0.776	inactive
